Structures can show the parent of a compound that is named as a salt. Some results were stated once for a whole list of compounds, not compound by compound. At least one structure is not confirmed: it was looked up by name or label, or the drawing left a doubt.
system: RPMI-8226, H929, MM.1S and MM.1R MM cell lines; experiment: Anti-proliferation assay, statements across MM cell lines; type: cell-based, human; conditions: crossed with chloro-IB-MECA, HE-NECA, (S)-ENBA, and/or ADAC in MM.1S or H929 cells
Experimental: The MM.1S, MM.1R, H929, MOLP-8, EJM, INA-6, ANBL6, KSM-12-PE, OPM2, and RPMI-8226 multiple myeloma cell lines, as well as the Burkitt's lymphoma cell line GA-10 and the non-Hodgkin's lymphoma cell lines Farage, SU-DHL6, and Karpas 422 were cultured at 37° C. and 5% CO2 in RPMI-1640 media supplemented with 10% FBS. ANBL6 and INA-6 culture media was also supplemented with 10 ng/ml IL-6. The OCI-ly10 cell line was cultured using RPMI-1640 media supplemented with 20% human serum. MM.1S, MM.1R, OCI-ly10, Karpas 422, and SU-DHL6 cells were provided by the Dana Farber Cancer Institute. H929, RPMI-8226, GA-10, and Farage cells were from ATCC (Cat #'s CCL-155, CRL-9068, CRL-2392 and CRL-2630 respectively). MOLP-8, EJM, KSM-12-PE, and OPM2 were from DSMZ. The ANBL6 and INA-6 cell lines were provided by the M. D. Anderson Cancer Research Center.
Compounds were prepared in DMSO at 1000× the highest desired concentration. Master plates were generated consisting of serially diluted compounds in 2- or 3-fold dilutions in 384-well format. For single agent dose response curves, the master plates consisted of 9 individual compounds at 12 concentrations in 2- or 3-fold dilutions. For combination matrices, master plates consisted of individual compounds at 6 or 9 concentrations at 2- or 3-fold dilutions.
Cells were added to 384-well plates 24 hours prior to compound addition such that each well contained 2000 cells in 35 μL of media. Master plates were diluted 100× (1 μL into 100 μL) into 384-well dilution plates containing only cell culture media. 4.5 μL from each dilution plate was added to each assay plate for a final dilution of 1000×. To obtain combination data, two master plates were diluted into the assay plates. Following compound addition, assay plates were kept at 37° C. and 5% CO2 for 72 hours. Thirty microliters of ATPLite (Perkin Elmer) at room temperature was then added to each well. Final amount of ATP was quantified within 30 minutes using ATPLite luminescent read-out on an Envision 2103 Multilabel Reader (Perkin Elmer). Measurements were taken at the top of the well using a luminescence aperture and a read time of 0.1 seconds per well.
The Loewe additivity model was used to quantify combination effects. Combinations were ranked initially by Additivity Excess Volume, which is defined as ADD Volume=ΣCX, CY (Idata−ILoewe). where ILoewe(CX, CY) is the inhibition that satisfies (CX/ECX)+(CY/ECY)=1, and ECX,Y are the effective concentrations at ILoewe for the single agent curves. A “Synergy Score” was also used, where the Synergy Score S=log fX log fY ΣIdata(Idata−ILoewe), summed over all non-single-agent concentration pairs, and where log fX,Y is the natural logarithm of the dilution factors used for each single agent. This effectively calculates a volume between the measured and Loewe additive response surfaces, weighted towards high inhibition and corrected for varying dilution factors. An uncertainty σS was calculated for each synergy score, based on the measured errors for the Idata values and standard error propagation.

| SMILES | synergy score |
| --- | --- |
| COc1ccc(Cc2nn3c([C@@H](CCCc4ccccc4)[C@@H](C)O)nc(C)c3c(=O)[nH]2)cc1OC [BAY 60-7550, 2-(3,4-dimethoxybenzyl)-7-[(1R)-1-[(1R)-1-hydroxyethyl]-4-phenylbutyl]-5-methylimidazo[5,1-f][1,2,4]triazin-4(3H)-one] | > 1 |
| CN(C(=O)CCCOc1ccc2[nH]c(=O)ccc2c1)C1CCCCC1 [Cilostamide, N-cyclohexyl-4-((1,2-dihydro-2-oxo-6-quinolinyl)oxy)-N-methyl-butanamide] | > 1 |
| O=C1CCc2cc(OCCCCc3nnnn3C3CCCCC3)ccc2N1 [Cilostazol, 6-[4-(1-cyclohexyl-1H-tetrazol-5-yl)butoxy]-3,4-dihydro-2(1H)-quinolinone] | > 1 |
| COc1ccc(Cc2nccc3cc(OC)c(OC)cc23)cc1OC [Papaverine hydrochloride, 1-[(3.4-dimethoxyphenyl)-methyl]-6,7-dimethoxyisoquinolone] | > 1 |
| COc1ccc([C@@H]2CNC(=O)C2)cc1OC1CCCC1 [R-(−)-Rolipram] | > 1 |
| CCCCOc1cc(CC2CNC(=O)N2)ccc1OC (centres unmarked) [RO-20-1724, 4-(3-butoxy-4-methoxybenzyl)-2-imidazolidinone] | > 1 |
| O=C(Nc1c(Cl)cncc1Cl)c1ccc(OC(F)F)c(OCC2CC2)c1 [Roflumilast, 3-(cyclopropylmethoxy)-N-(3,5-dichloro-4-pyridinyl)-4-(difluoromethoxy)-benzamide] | > 1 |
| COc1ccc(C2CNC(=O)C2)cc1OC1CCCC1 (centres unmarked) [Rolipram, 4-(3-cyclopentyloxy-4-methoxyphenyl)-2-pyrrolidone] | > 1 |
| COc1cc2c(cc1OC)-c1cc(=Nc3c(C)cc(C)cc3C)n(C)c(=O)n1CC2 [Trequinsin hydrochloride, 2,3,6,7-tetrahydro-9,10-dimethoxy-3-methyl-2-((2,4,6-trimethylphenyl)imino)-4H-pyrimido(6,1-a)isoquinolin-4-one] | > 1 |
| COc1cc(-c2ccc(=O)[nH]n2)ccc1OC(F)F [Zardaverine, 6-(4-(difluoromethoxy)-3-methoxyphenyl)-3(2H)-Pyridazinone] | > 1 |
| Cc1[nH]c(=O)c(C#N)cc1-c1ccncc1 [milrinone] | > 1 |

Reference: patent US20090047243A1, “COMBINATIONS FOR THE TREATMENT OF B-CELL PROLIFERATIVE DISORDERS” (priority 2007, published 2009)
